# Data as given in PubChem BioAssay AID1159584 (Peter MacCallum Cancer Centre, 2016).
# Assay: 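Genes that CDH1-null MCF10A cells selectively depend on to survive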 (primary screen)
# System: human MCF10A breast epithelial cells, parental and CDH1-null
# Reagents: siRNA against human genes
# Measured: 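ATP luminescence (CellTiter-Glo) viability per line relative to mean mock wells over all plates, and the ratio of CDH1-null to parental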
# Reading the numbers: CDH1-null / parental viability ratio: higher = CDH1-null cells survive relatively better than parental; CDH1-null viability vs mock: higher = more viable CDH1-null cells; parental viability vs mock: higher = more viable parental cells
# This is a random part of about 18,000 reagents. Not given: the amount of reagent, the time to read-out.
The first 2 entries as a preview:
target gene,CDH1-null / parental viability ratio,CDH1-null viability vs mock (fraction of mock),parental viability vs mock (fraction of mock)
MBP (myelin basic protein),1.43,0.9,0.63
GBX2 (gastrulation brain homeobox 2),1.13,1.02,0.9

Main list, from the first entry:
target gene,CDH1-null / parental viability ratio,CDH1-null viability vs mock (fraction of mock),parental viability vs mock (fraction of mock)
MBP (myelin basic protein),1.43,0.9,0.63
GBX2 (gastrulation brain homeobox 2),1.13,1.02,0.9
ADORA2B (adenosine A2b receptor),0.91,0.88,0.97
SEMA7A (semaphorin 7A (JohnMiltonHagen blood group)),1,0.88,0.88
PPP1R1B (protein phosphatase 1 regulatory inhibitor subunit 1B),1.31,0.81,0.62
OR6V1 (olfactory receptor family 6 subfamily V member 1),0.86,0.69,0.8
REG1B (regenerating family member 1 beta),0.85,0.64,0.75
DNAJA1 (DnaJ heat shock protein family (Hsp40) member A1),0.63,0.49,0.78
ULK4 (unc-51 like kinase 4),1.01,1.01,1
FOXA3 (forkhead box A3),1,1.04,1.04
SEC11B,0.96,0.94,0.98
MRPL23 (mitochondrial ribosomal protein L23),1.38,0.72,0.52
IL12A (interleukin 12A),0.81,0.56,0.69
CDC50A (cell division cycle 50 P4-ATPase accessory subunit A),1.01,1.01,1
SNX12 (sorting nexin 12),0.75,0.5,0.67
GDAP1 (ganglioside induced differentiation associated protein 1),1.02,0.99,0.97
PCNX1 (pecanex 1),1.14,1.03,0.9
ZNF558 (zinc finger protein 558),1.04,0.95,0.91
GAS2L1 (growth arrest specific 2 like 1),0.89,0.55,0.62
GHDC (GH3 domain containing),1.29,0.4,0.31
STAB1 (stabilin 1),0.95,0.95,1
SLC7A6OS,1.29,0.62,0.48
FAM114A1 (family with sequence similarity 114 member A1),0.71,0.6,0.85
SPIRE2 (spire type actin nucleation factor 2),1.14,0.89,0.78
C12orf76 (chromosome 12 open reading frame 76),1.3,0.6,0.46
SYPL1 (synaptophysin like 1),1.03,0.97,0.94
ATP13A4 (ATPase 13A4),0.87,0.26,0.3
AMFR (autocrine motility factor receptor),0.82,0.66,0.8
